Where two headings read alike, the source gives them in different places. Some results were stated once for a whole list of compounds, not compound by compound. For at least one compound, name, drawing or mass did not settle the structure.
Legend:
Fusarium culmorum = type: cell-based; settings: 20 ppm
[1] = tested on: Mycosphaerella arachidis (Cercospora arachidicola); assay: Mycosphaerella arachidis (Cercospora arachidicola)/liquid culture (early leaf spot); type: cell-based; settings: 20 ppm; liquid culture, PDB; inhibition of growth determined photometrically 4-5 days after application
Pythium ultimum = assay: Pythium ultimum/liquid culture (seedling damping off); type: cell-based; settings: 20 ppm; liquid culture, potato dextrose broth; inhibition of growth determined photometrically 2-3 days after application
[2] = tested on: Puccinia recondita f. sp. tritici; assay: Puccinia recondita f. sp. tritici/wheat/leaf disc curative (brown rust); type: in vivo; settings: 200 ppm, wheat leaf segments, applied one day after inoculation, assessed 8 dpi
[3] = tested on: Glomerella lagenarium (Colletotrichum lagenarium); assay: Glomerella lagenarium (Colletotrichum lagenarium)/liquid culture (anthracnose); type: cell-based; settings: 20 ppm; liquid culture, PDB; inhibition of growth measured photometrically 3-4 days after application
[4] = tested on: Botryotinia fuckeliana (Botrytis cinerea); assay: Botryotinia fuckeliana (Botrytis cinerea)/liquid culture (gray mould); type: cell-based; settings: 20 ppm; liquid culture, Vogels broth; inhibition of growth determined photometrically 3-4 days after application
Gaeumannomyces graminis = assay: Gaeumannomyces graminis/liquid culture (take-all of cereals); type: cell-based; settings: 20 ppm; liquid culture, PDB; inhibition of growth determined photometrically 4-5 days after application
[5] = tested on: Monographella nivalis (Microdochium nivale); assay: Monographella nivalis (Microdochium nivale)/liquid culture (foot rot cereals); type: cell-based; settings: 20 ppm; liquid culture, PDB; inhibition of growth determined photometrically 4-5 days after application
Sclerotinia sclerotiorum = assay: Sclerotinia sclerotiorum/liquid culture (cottony rot); settings: 20 ppm; liquid culture, PDB; inhibition of growth determined visually 3-4 days after application
[6] = tested on: Mycosphaerella graminicola (Septoria tritici); assay: Mycosphaerella graminicola (Septoria tritici)/liquid culture (Septoria blotch); type: cell-based; settings: 20 ppm; liquid culture, PDB; inhibition of growth determined photometrically 4-5 days after application
[7] = tested on: Thanatephorus cucumeris (Rhizoctonia solani); settings: 20 ppm; liquid culture, PDB; inhibition of growth determined photometrically 3-4 days after application
[8] = tested on: Puccinia recondita f. sp. tritici; assay: Puccinia recondita f. sp. tritici/wheat/leaf disc preventative (brown rust); type: in vivo; settings: 200 ppm, wheat leaf segments cv Kanzler, inoculated 1 day after application, assessed 7-9 days after application
[9] = tested on: Phaeosphaeria nodorum (Septoria nodorum); assay: Phaeosphaeria nodorum (Septoria nodorum)/wheat/leaf disc preventative (glume blotch); type: in vivo; settings: 200 ppm, wheat leaf segments cv Kanzler, inoculated 2 days after application, assessed 5-7 days after application
[10] = tested on: Magnaporthe grisea (Pyricularia oryzae); type: in vivo; settings: 200 ppm; rice leaf segments cv. Ballila, preventative, inoculated 2 days after application; assessed 5-7 days after application
Plasmopara viticola = type: in vivo; settings: 200 ppm; grape vine leaf disks, preventative, inoculated 1 day after application; assessed 6-8 days after application
Phytophthora infestans = type: in vivo; settings: 200 ppm; tomato leaf disks, preventative, inoculated 1 day after application; assessed 5-7 days after application

Measured: disease control

CCC(Oc1cc2c(cc1F)COB2O)C(=O)OC (racemic) [Compound 39]
at least 80%: Fusarium culmorum | [1] | Pythium ultimum | [2] | [3]

COc1ccc2c(c1)B(O)OC2 [Compound 2]
at least 80%: [4] | [1] | Pythium ultimum | Gaeumannomyces graminis | [5] | Sclerotinia sclerotiorum

C#CCOc1ccc2c(c1)B(O)OC2 [Compound 3]
at least 80%: Fusarium culmorum | [4] | [1] | Pythium ultimum | Gaeumannomyces graminis | [6] | [5] | [7] | Sclerotinia sclerotiorum | [3]

COc1ccc2c(c1Cl)B(O)OC2 [Compound 4]
at least 80%: Fusarium culmorum | [4] | [1] | Pythium ultimum | Gaeumannomyces graminis | [6] | [5] | Sclerotinia sclerotiorum | [3]

C#CCOc1cc2c(cc1Cl)COB2O [Compound 7]
at least 80%: Fusarium culmorum | [4] | [1] | [8] | [9] | [10] | Pythium ultimum | Gaeumannomyces graminis | [6] | [5] | [7] | Sclerotinia sclerotiorum | [3]

OB1OCc2cc(Cl)c(OCc3ccc(Cl)cc3)cc21 [Compound 10]
at least 80%: [8] | Pythium ultimum | Gaeumannomyces graminis | Plasmopara viticola | [6] | [5]

CC(=O)Oc1cc2c(cc1Cl)COB2O [Compound 12]
at least 80%: Fusarium culmorum | [4] | [1] | Pythium ultimum | Gaeumannomyces graminis | [6] | [5] | [3]

C#CCOc1ccc2c(c1Cl)B(O)OC2 [Compound 15]
at least 80%: [1] | [8] | [9] | Pythium ultimum | Gaeumannomyces graminis | Plasmopara viticola | [6] | [5] | [7] | Sclerotinia sclerotiorum | [3]

O=[N+]([O-])c1cc2c(cc1O)B(O)OC2 [Compound 16]
at least 80%: [1] | Pythium ultimum | Plasmopara viticola | [6] | [5] | [7] | [3]

CC#CCOc1cc2c(cc1F)COB2O [Compound 32]
at least 80%: Fusarium culmorum | [1] | [8] | [9] | [10] | Pythium ultimum | Gaeumannomyces graminis | [6] | [5] | [7] | Sclerotinia sclerotiorum | [3]

COC(=O)COc1cc2c(cc1F)COB2O [Compound 43]
at least 80%: Fusarium culmorum | Pythium ultimum | Gaeumannomyces graminis | [2] | [5] | [7] | Sclerotinia sclerotiorum | [3]

C=C(C#N)COc1cc2c(cc1F)COB2O [Compound 44]
at least 80%: [1] | [8] | [9] | Pythium ultimum | Gaeumannomyces graminis | [6] | [5] | [7] | Sclerotinia sclerotiorum | [3]

COC(=O)COc1cc2c(cc1Cl)COB2O [Compound 80]
at least 80%: Fusarium culmorum | [1] | [8] | Pythium ultimum | Gaeumannomyces graminis | [2] | Plasmopara viticola | [5] | [7] | Sclerotinia sclerotiorum | [3]

N#CCCCOc1cc2c(cc1Cl)COB2O [Compound 82]
at least 80%: Pythium ultimum | Phytophthora infestans

C=CCOCC(C)OC(=O)COc1cc2c(cc1Cl)COB2O (centres unmarked) [Compound 84]
at least 80%: [8] | Pythium ultimum | [2] | [7]

CCOC(=O)COc1cc2c(cc1Cl)COB2O [Compound 86]
at least 80%: Fusarium culmorum | [1] | [8] | Pythium ultimum | Gaeumannomyces graminis | [2] | Plasmopara viticola | [5] | [7] | Sclerotinia sclerotiorum | [3]

OB1OCc2cc(Cl)c(OCCCCl)cc21 [Compound 89]
at least 80%: Pythium ultimum | Gaeumannomyces graminis | Plasmopara viticola | [6] | [5] | [3]

OB1OCc2cc(Cl)c(OCCCl)cc21 [Compound 90]
at least 80%: [1] | [8] | Pythium ultimum | Gaeumannomyces graminis | Plasmopara viticola | [6] | [5] | [3]

CC#CCOc1c(Cl)cc2c(c1Cl)B(O)OC2 [Compound 96]
at least 80%: Fusarium culmorum | [1] | Pythium ultimum | Gaeumannomyces graminis | Plasmopara viticola | [6] | [5] | [7] | Sclerotinia sclerotiorum

CCCCCOc1cc2c(cc1Cl)COB2O [Compound 100]
at least 80%: [8] | [9] | Gaeumannomyces graminis | [6] | [5] | [3]

COc1cccc2c1B(O)OC2 [Compound 103]
at least 80%: Fusarium culmorum | [4] | [1] | Pythium ultimum | Gaeumannomyces graminis | [6] | [5] | Sclerotinia sclerotiorum | [3]

COc1cc(Cl)cc2c1B(O)OC2 [Compound 104, 5-chloro-1-hydroxy-7-methoxy-3H-2,1-benzoxaborole]
at least 80%: Fusarium culmorum; liquid culture, PDB, inhibition of growth determined visually 3-4 days after application | [10]
